SMILES strings stand for the structures. “And” between values parts separate entries of the source, which are not always exact repeats. Identical values can stand only once. Counter-ions that a name gives are not always drawn. Some of the results follow. Single values are uncertain here, since repeats match poorly.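 HEK293T cells were given each compound shortly before transfection with a reporter in which red mCherry is followed by the SARS-CoV-2 frameshift element and then GFP in the −1 frame, so GFP appears only after frameshifting.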

The test system of this test is HEK293T. Nature of the test: percent viability (nuclei count) relative to control; higher = more viable cells. Conditions: 10 µM; 24 h.
As to `NC[C@@H]1CC[C@@H](N)[C@@H](O[C@H]2[C@H](O)[C@@H](O[C@H]3O[C@H](CO)[C@@H](O)[C@H](N)[C@H]3O)[C@H](N)C[C@@H]2N)O1`, the percent viability turned out to be 127%.
To `CC[C@]1(O)C[C@@H]2CN(CCc3c([nH]c4ccccc34)[C@@](C(=O)OC)(c3cc4c(cc3OC)N(C)[C@H]3[C@@](O)(C(=O)OC)[C@H](OC(C)=O)[C@]5(CC)C=CCN6CC[C@]43[C@@H]65)C2)C1` [Velban] belongs 27%.
In the case of `CC(=O)NC[C@H]1CN(c2ccc(N3CCOCC3)c(F)c2)C(=O)O1` [linezolid], the percent viability is 252% and 206%.
Turning to `C[C@@H]1C/C=C/C=C/C=C/C=C/[C@H](O[C@@H]2O[C@H](C)[C@@H](O)[C@H](N)[C@@H]2O)C[C@@H]2O[C@](O)(C[C@@H](O)C[C@H]3O[C@@H]3/C=C/C(=O)O1)C[C@H](O)[C@H]2C(=O)O` [Natacyn], the percent viability is 289%.
The same measure for `Oc1cc(O)c(Cl)cn1` [gimeracil]: 240%; for `CCC1(CC)COC(=O)NC1=O` [diethadione]: 334%; for `CCN1CCN(C(=O)N[C@@H](C(=O)N[C@@H]2C(=O)N3C(C(=O)O)=C(CSc4nnnn4C)CS[C@H]23)c2ccc(O)cc2)C(=O)C1=O` [Cefobid]: 202% and 347%.
Take `CCn1cc(C(=O)O)c(=O)c2cc(F)c(N3CCN(C)CC3)cc21` [Pefloxacine mesylate dihydrate]: the percent viability worked out at 244%.
To `Cc1nc(-c2ccc(OCC(C)C)c(C#N)c2)sc1C(=O)O` [febuxostat] belongs 200%; to `Clc1ccc(Nc2nnc(Cc3ccncc3)c3ccccc23)cc1` [vatalanib], 240%.
To `CO[C@H]1C[C@@H]2CC[C@@H](C)[C@@](O)(O2)C(=O)C(=O)N2CCCC[C@H]2C(=O)O[C@H]([C@H](C)C[C@@H]2CC[C@@H](O)[C@H](OC)C2)CC(=O)[C@H](C)/C=C(\C)[C@@H](O)[C@@H](OC)C(=O)[C@H](C)C[C@H](C)/C=C/C=C/C=C/1C` [Rapamune] belongs 78.8%.
Consider `C=CC1=C(C(=O)O)N2C(=O)[C@@H](NC(=O)/C(=N\O)c3csc(N)n3)[C@H]2SC1`, for which the percent viability is 302%.
`O=c1[nH]sc2cc(Cl)ccc12` [ticlatone]: the percent viability was 236%.
To `CNCC[C@H](Oc1cccc2ccccc12)c1cccs1` [duloxetine] belongs 247%; to `COc1ccc(C(=O)CC(=O)c2ccc(C(C)(C)C)cc2)cc1` [avobenzone], 228%; to `CC(CN1c2ccccc2Sc2cccnc21)N(C)C` (configuration not stated) [isothipendyl], 62.2%.
To `OCc1ccccc1O` belongs 162%; to `CN[C@@H]1[C@H](O[C@H]2[C@H](O[C@H]3[C@H](O)[C@@H](O)[C@H](N=C(N)N)[C@@H](O)[C@@H]3N=C(N)N)O[C@@H](C)[C@]2(O)C=O)O[C@@H](CO)[C@H](O)[C@H]1O` [Streptomycin], 211% and 175%; to `O=c1[nH]c(=O)c2ccccc2o1` [carsalam], 39.6%.
The same measure for `O=C(O)Cc1sc(-c2ccccc2)nc1-c1ccc(Cl)cc1` [fentiazac]: 246%; for `CC(C)NC(=N)NC(=N)Nc1ccc(Cl)cc1` [Proguanil]: 269%; for `CC(C)(C)[C@]1(O)CCN2C[C@H]3c4ccccc4CCc4cccc(c43)[C@@H]2C1` [(+)-Butaclamol·HCl]: 302%.
As for `Nc1ccc(S(N)(=O)=O)cc1` [sulfanilamide], the percent viability was found to be 329%.
With `CC(C)(N)C(=O)N[C@@H](Cc1c[nH]cn1)C(=O)N[C@H](Cc1ccc2ccccc2c1)C(=O)N[C@H](Cc1ccccc1)C(=O)N[C@@H](CCCCN)C(N)=O` [ipamorelin], the percent viability came to 18.2%.
To `CCN(CC)CCOc1cc2oc(=O)cc(C)c2cc1OCCN(CC)CC` [oxamarin] belongs 424%; to `CCN(CC)CCCC(C)Nc1c2ccc(Cl)cc2nc2ccc(OC)cc12` (configuration not stated) [mepacrine], 170%.
`N[C@H](C(=O)O)c1ccc(O)cc1` [oxfenicine]: the percent viability is 198%.
To `CCC(=O)O[C@]1(C(=O)CCl)[C@@H](C)C[C@H]2[C@@H]3CCC4=CC(=O)C=C[C@]4(C)[C@@]3(F)[C@@H](O)C[C@@]21C` [Temovate] belongs 217%; to `C=CCc1ccccc1OCC(O)CNC(C)C` (configuration not stated) [alprenolol], 178%; to `O=C(O)Cc1csc(-c2ccc(Cl)cc2)n1` [fenclozic acid], 148%.
To `Clc1ccc(Cn2c(CN3CCCC3)nc3ccccc32)cc1` [clemizole] belongs 270%.
The same measure for `CC[C@H](C)[C@H](N)C1=N[C@H](C(=O)N[C@@H](CC(C)C)C(=O)N[C@H](CCC(=O)O)C(=O)N[C@H](C(=O)N[C@H]2CCCCNC(=O)[C@H](CC(N)=O)NC(=O)[C@@H](CC(=O)O)NC(=O)[C@H](Cc3cnc[nH]3)NC(=O)[C@@H](Cc3ccccc3)NC(=O)[C@H]([C@@H](C)CC)NC(=O)[C@@H](CCCN)NC2=O)[C@@H](C)CC)CS1`: 225%.

Source of the values: the supplement of paper PMC8256030.
